Measured values: ChEMBL document CHEMBL1137911, “Synthesis and evaluation of 4-triazolylflavans as new aromatase inhibitors” (Bioorg Med Chem Lett, 2004)

Biological target: T1, Aromatase (Homo sapiens, UniProt P11511)
T1 sequence (P11511 whole entry): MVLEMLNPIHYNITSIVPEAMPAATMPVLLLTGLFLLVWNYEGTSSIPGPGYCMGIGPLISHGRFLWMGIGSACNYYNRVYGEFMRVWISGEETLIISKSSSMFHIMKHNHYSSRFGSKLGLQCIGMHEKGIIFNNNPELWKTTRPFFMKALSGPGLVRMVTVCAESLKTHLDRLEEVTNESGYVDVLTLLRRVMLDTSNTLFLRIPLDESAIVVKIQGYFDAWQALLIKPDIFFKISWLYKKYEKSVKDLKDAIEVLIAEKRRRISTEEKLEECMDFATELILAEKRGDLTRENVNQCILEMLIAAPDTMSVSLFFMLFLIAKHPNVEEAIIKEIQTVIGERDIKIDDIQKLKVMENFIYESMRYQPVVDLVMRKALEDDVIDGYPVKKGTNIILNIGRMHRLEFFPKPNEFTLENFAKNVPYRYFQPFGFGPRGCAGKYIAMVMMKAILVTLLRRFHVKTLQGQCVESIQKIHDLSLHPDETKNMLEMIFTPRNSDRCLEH
Experiment: Relative potency for inhibition of aromatase binding compared to aminoglutethimide

COc1ccc2c(c1)OC(c1ccccc1)CC2n1ccnc1 (stereo unspecified)
Relative Potency: 57.1
